The values below come from publication PMC11234460, “In Silico Discovery of Stapled Peptide Inhibitor Targeting the Nur77‐PPARγ Interaction and Its Anti‐Breast‐Cancer Efficacy” (Advanced Science, 2024).

Amino acid sequences for entries named in this document (tags omitted).
UniProt P22736: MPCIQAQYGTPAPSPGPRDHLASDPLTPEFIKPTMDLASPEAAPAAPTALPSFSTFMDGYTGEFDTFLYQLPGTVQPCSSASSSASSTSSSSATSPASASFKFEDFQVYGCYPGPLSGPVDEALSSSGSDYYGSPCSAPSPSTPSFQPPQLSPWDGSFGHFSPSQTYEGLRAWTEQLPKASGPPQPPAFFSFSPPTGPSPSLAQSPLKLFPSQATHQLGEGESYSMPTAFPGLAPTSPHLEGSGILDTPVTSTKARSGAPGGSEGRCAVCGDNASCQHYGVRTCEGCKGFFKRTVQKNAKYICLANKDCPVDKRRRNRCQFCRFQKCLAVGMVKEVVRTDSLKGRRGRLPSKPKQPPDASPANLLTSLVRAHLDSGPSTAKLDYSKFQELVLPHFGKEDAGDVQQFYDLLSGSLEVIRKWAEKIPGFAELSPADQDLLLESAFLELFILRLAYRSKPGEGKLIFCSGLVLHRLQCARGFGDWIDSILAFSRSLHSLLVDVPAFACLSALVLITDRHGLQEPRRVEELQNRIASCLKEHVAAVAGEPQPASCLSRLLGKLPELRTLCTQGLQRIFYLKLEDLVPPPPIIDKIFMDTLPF

This experiment deals with Nur77 (in HEK293T cells, co-immunoprecipitation) (UniProt P22736). Put plainly: co-IP; HEK293T cells transfected with Nur77 and PPARγ plasmids, treated with peptide (ST-CY14 1 × 10^-5 M) for 24 h; NP40 lysis; IP with Nur77 antibody, blot for PPARγ and Trim13.

No constants are given. Whether binding was seen depends on the method and setting. Binding seen in cells or lysates may run through a third protein. Some results given as binding are weak or reduced against the parent protein; the word gives no strength.

B1: Trim13 (enzyme, UniProt O60858 1-407)
chain: MELLEEDLTCPICCSLFDDPRVLPCSHNFCKKCLEGILEGSVRNSLWRPAPFKCPTCRKETSATGINSLQVNYSLKGIVEKYNKIKISPKMPVCKGHLGQPLNIFCLTDMQLICGICATRGEHTKHVFCSIEDAYAQERDAFESLFQSFETWRRGDALSRLDTLETSKRKSLQLLTKDSDKVKEFFEKLQHTLDQKKNEILSDFETMKLAVMQAYDPEINKLNTILQEQRMAFNIAEAFKDVSEPIVFLQQMQEFREKIKVIKETPLPPSNLPASPLMKNFDTSQWEDIKLVDVDKLSLPQDTGTFISKIPWSFYKLFLLILLLGLVIVFGPTMFLEWSLFDDLATWKGCLSNFSSYLTKTADFIEQSVFYWEQVTDGFFIFNERFKNFTLVVLNNVAEFVCKYKLL
Take B1: the binding entry was “binds”.
